Reference: the supplement of paper PMC8551327
Where a name gives a salt, the structure may show the parent alone. This is one part of the list. No stated cut-off is given here; in the data, active = 1.25 or more and inactive = the rest. Repeats are few or missing, and single values can be far off.

tested on: Kcc2-LUC knock-in mouse primary cortical neurons (Kcc2 promoter reporter); assay: Kcc2 promoter-driven luciferase activity relative to vehicle control (fold of vehicle (ratio)); higher = stronger Kcc2 promoter activation (Kcc2 expression enhancer); details: 100 nM; 48 h

Row | SMILES | Kcc2 promoter-driven luciferase activity
1 | CC(=O)C1CCCC(=O)C=CC(=O)O1 (stereo not drawn) [2-Acetyl-2,3,4,5-tetrahydrooxonine-6,9-dione] | active: 1.86
2 | COc1cc2cc(c1Cl)N(C)C(=O)C[C@H](OC(=O)[C@H](C)N(C)C(C)=O)[C@]1(C)O[C@H]1[C@H](C)[C@@H]1C[C@@](O)(NC(=O)O1)[C@H](OC)/C=C/C=C(\C)C2 [Maytansine] | inactive: 0.435
3 | COc1ccc([C@@H]2CC(=O)c3c(O)cc(O[C@@H]4O[C@H](CO)[C@@H](O)[C@H](O)[C@H]4O[C@@H]4O[C@@H](C)[C@H](O)[C@@H](O)[C@H]4O)cc3O2)cc1O [Neohesperidin] | active: 1.25
4 | COc1ccc(NC(=O)C(=O)/C=C(\O)c2ccccc2)cc1 [2-Hydroxy-N-(4-methoxyphenyl)-4-oxo-4-phenyl-2-butenamide] | active: 3.81
5 | COc1ccc2c(c1[N+](=O)[O-])CC[C@@H]1[C@@H]2CC[C@]2(C)C(=O)CC[C@@H]12 [3-Methoxy-4-nitro-estra-1,3,5(10)-trien-17-one] | inactive: 0.93
6 | COC(=O)C1C2CC3c4[nH]c5cc(OC)ccc5c4CCN3CC2CC(OC(=O)CCc2cc(OC)c(OC)c(OC)c2)C1OC (stereo not drawn) [Dihydroisorescinnamine] | active: 1.32
7 | COC(=O)C1(C)CCCC2(C)c3cc(OC)ccc3C(=O)C(Br)C12 (stereo not drawn) | inactive: 1
8 | CC[C@]1(O)C[C@H]2CN(CCc3c([nH]c4ccccc34)[C@@](C(=O)OC)(c3cc4c(cc3OC)N(C=O)[C@H]3[C@@](O)(C(=O)OC)[C@H](OC(C)=O)[C@]5(CC)C=CCN6CC[C@]43[C@@H]65)C2)C1 [Vincristine Sulfate] | inactive: 0.58
